Results reported in article PMC4014428.
These are yes or no findings as the source states them, for the method shown. In cells and extracts the contact can be indirect. Some entries that bind do so weakly or less than the wild type.

Target: HA epitope-tagged LexA fusion to a Gcn2 KD segment (residues 720–999) (S. cerevisiae) (UniProt P15442)
Test: co-IP; [35S]methionine-labelled in vitro translated YKD fragments incubated with 50 µg WCE of gcn2Δ yeast HQY132 expressing LexA-HA-KD(720–999); anti-HA agarose, 4°C 2 h, breaking buffer (50 mM Tris/HCl pH 7.5, 50 mM NaCl, 0.1% Triton, 1 mM DTT); SDS-PAGE and fluorography; pellet:input ratios normalised to WT YKD

| binding | Binder |
| --- | --- |
| binds | Gcn2 YKD fragment (230–604), wild type (domain or fragment, UniProt P15442 230-604, [35S]-methionine-labeled) MFKFKAVVNPKPIKLTSDIFSFSKQFLVKPYIPPESPLADFLMSSEMMENFYYLLSEIELDNSYFNTSNGKKEIANLEKELETVLKAKHDNVNRLFGYTVERMGRNNATFVWKIRLLTEYCNYYPLGDLIQSVGFVNLATARIWMIRLLEGLEAIHKLGIVHKCINLETVILVKDADFGSTIPKLVHSTYGYTVLNMLSRYPNKNGSSVELSPSTWIAPELLKFNNAKPQRLTDIWQLGVLFIQIISGSDIVMNFETPQEFLDSTSMDETLYDLLSKMLNNDPKKRLGTLELLPMKFLRTNIDSTINRFNLVSESVNSNSLELTPGDTITVRGNGGRTLSQSSIRRRSFNVGSRFSSINPATRSRYASDFEEIAV |
| binds | Gcn2 YKD fragment (230–604) E379K/T518A/L527I (domain or fragment, UniProt P15442 230-604, [35S]-methionine-labeled) MFKFKAVVNPKPIKLTSDIFSFSKQFLVKPYIPPESPLADFLMSSEMMENFYYLLSEIELDNSYFNTSNGKKEIANLEKELETVLKAKHDNVNRLFGYTVERMGRNNATFVWKIRLLTEYCNYYPLGDLIQSVGFVNLATARIWMIRLLKGLEAIHKLGIVHKCINLETVILVKDADFGSTIPKLVHSTYGYTVLNMLSRYPNKNGSSVELSPSTWIAPELLKFNNAKPQRLTDIWQLGVLFIQIISGSDIVMNFETPQEFLDSTSMDETLYDLLSKMLNNDPKKRLGALELLPMKFIRTNIDSTINRFNLVSESVNSNSLELTPGDTITVRGNGGRTLSQSSIRRRSFNVGSRFSSINPATRSRYASDFEEIAV |
| binds | Gcn2 YKD fragment (230–604) E379K (domain or fragment, UniProt P15442 230-604, [35S]-methionine-labeled) MFKFKAVVNPKPIKLTSDIFSFSKQFLVKPYIPPESPLADFLMSSEMMENFYYLLSEIELDNSYFNTSNGKKEIANLEKELETVLKAKHDNVNRLFGYTVERMGRNNATFVWKIRLLTEYCNYYPLGDLIQSVGFVNLATARIWMIRLLKGLEAIHKLGIVHKCINLETVILVKDADFGSTIPKLVHSTYGYTVLNMLSRYPNKNGSSVELSPSTWIAPELLKFNNAKPQRLTDIWQLGVLFIQIISGSDIVMNFETPQEFLDSTSMDETLYDLLSKMLNNDPKKRLGTLELLPMKFLRTNIDSTINRFNLVSESVNSNSLELTPGDTITVRGNGGRTLSQSSIRRRSFNVGSRFSSINPATRSRYASDFEEIAV |
